Source: PubChem BioAssay AID652243 (Drosophila RNAi Screening Center, 2013)
The screen tested about 24,000 reagents; shown is a random part of those that have a named target and a result. Over the whole deposit, 246 (1%) got an active call. 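Plates not normalised; calls are printed but the firefly/Renilla ratio behind them is not deposited; fold cut for lowering reported inconsistently.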 The raw values are shown without normalisation. Reagent sequences are not shown. Not stated in the record: the amount of reagent.

- Test: 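Fly genes required for human androgen receptor driven transcription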 (primary screen)
- Cell system: Drosophila S2R+ cells
- Knock-down reagent: long dsRNA against Drosophila genes
- Duration: 72 h (48 h, then 24 h hormone)
- Treatment: synthetic androgen R1881 at 10 nM for 24 h
- Measured: 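Firefly light from an androgen-responsive reporter and Renilla control light per well, raw and unnormalised, for each of two replicates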
- Scale: firefly reporter light: higher = more light from androgen-responsive reporter; Renilla control light: higher = more constitutive control signal (cell number, transfection)
- Call rule: 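Hit when the log firefly-to-Renilla ratio dropped or increased by a fixed fold versus the mean of GFP or LacZ controls across duplicate plates; lowering cut given as 1.5 and as 3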
- Calls: active = hit: reporter lowered or raised; inactive = no hit

CG12831 [DRSC06179] | firefly reporter light, replicate 1 = 2.17e5; firefly reporter light, replicate 2 = 2.67e5; Renilla control light, replicate 1 = 2.03e6; Renilla control light, replicate 2 = 1.51e6; Call = inactive
dgt5 (dim gamma-tubulin 5) [DRSC07280] | firefly reporter light, replicate 1 = 9.10e5; firefly reporter light, replicate 2 = 6.92e5; Renilla control light, replicate 1 = 1.24e6; Renilla control light, replicate 2 = 1.31e6; Call = inactive
dgt5 (dim gamma-tubulin 5) [DRSC29379] | firefly reporter light, replicate 1 = 3.13e5; firefly reporter light, replicate 2 = 3.89e5; Renilla control light, replicate 1 = 1.08e6; Renilla control light, replicate 2 = 1.08e6; Call = inactive
CG31226 [DRSC21724] | firefly reporter light, replicate 1 = 4.91e5; firefly reporter light, replicate 2 = 3.54e5; Renilla control light, replicate 1 = 1.12e6; Renilla control light, replicate 2 = 1.20e6; Call = inactive
lic (licorne) [DRSC20347] | firefly reporter light, replicate 1 = 1.49e5; firefly reporter light, replicate 2 = 1.26e5; Renilla control light, replicate 1 = 7.90e5; Renilla control light, replicate 2 = 7.04e5; Call = inactive
lic (licorne) [DRSC36705] | firefly reporter light, replicate 1 = 8.43e5; firefly reporter light, replicate 2 = 8.51e5; Renilla control light, replicate 1 = 1.22e6; Renilla control light, replicate 2 = 1.67e6; Call = inactive
CG30472 [DRSC22245] | firefly reporter light, replicate 1 = 4.53e5; firefly reporter light, replicate 2 = 6.38e5; Renilla control light, replicate 1 = 1.45e6; Renilla control light, replicate 2 = 2.15e6; Call = inactive
CG30472 [DRSC26789] | firefly reporter light, replicate 1 = 3.51e5; firefly reporter light, replicate 2 = 3.71e5; Renilla control light, replicate 1 = 7.70e5; Renilla control light, replicate 2 = 4.68e5; Call = inactive
CG4066 [DRSC15541] | firefly reporter light, replicate 1 = 1.28e5; firefly reporter light, replicate 2 = 1.11e5; Renilla control light, replicate 1 = 2.24e6; Renilla control light, replicate 2 = 2.03e6; Call = inactive
CG4066 [DRSC29744] | firefly reporter light, replicate 1 = 2.39e5; firefly reporter light, replicate 2 = 5.12e5; Renilla control light, replicate 1 = 7.19e5; Renilla control light, replicate 2 = 8.49e5; Call = inactive
CG4653 [DRSC19909] | firefly reporter light, replicate 1 = 3.32e5; firefly reporter light, replicate 2 = 3.19e5; Renilla control light, replicate 1 = 3.05e6; Renilla control light, replicate 2 = 2.78e6; Call = inactive
CG4653 [DRSC22857] | firefly reporter light, replicate 1 = 6.02e5; firefly reporter light, replicate 2 = 8.05e5; Renilla control light, replicate 1 = 1.59e6; Renilla control light, replicate 2 = 2.15e6; Call = inactive
CG4653 [DRSC24329] | firefly reporter light, replicate 1 = 6.46e5; firefly reporter light, replicate 2 = 8.83e5; Renilla control light, replicate 1 = 9.37e5; Renilla control light, replicate 2 = 1.18e6; Call = inactive
CG7579 [DRSC10885] | firefly reporter light, replicate 1 = 2.55e5; firefly reporter light, replicate 2 = 2.02e5; Renilla control light, replicate 1 = 2.46e6; Renilla control light, replicate 2 = 1.82e6; Call = inactive
uno (univalents only) [DRSC07244] | firefly reporter light, replicate 1 = 3.95e5; firefly reporter light, replicate 2 = 5.13e5; Renilla control light, replicate 1 = 2.77e6; Renilla control light, replicate 2 = 2.23e6; Call = inactive
uno (univalents only) [DRSC28407] | firefly reporter light, replicate 1 = 3.41e5; firefly reporter light, replicate 2 = 4.17e5; Renilla control light, replicate 1 = 5.26e5; Renilla control light, replicate 2 = 8.74e5; Call = inactive
tex [DRSC16517] | firefly reporter light, replicate 1 = 75747; firefly reporter light, replicate 2 = 1.35e5; Renilla control light, replicate 1 = 1.46e6; Renilla control light, replicate 2 = 1.18e6; Call = inactive
RpL38 (Ribosomal protein L38) [DRSC07818] | firefly reporter light, replicate 1 = 1.04e5; firefly reporter light, replicate 2 = 1.08e5; Renilla control light, replicate 1 = 1.04e6; Renilla control light, replicate 2 = 1.16e6; Call = inactive
CG1571 [DRSC18068] | firefly reporter light, replicate 1 = 4.98e5; firefly reporter light, replicate 2 = 4.97e5; Renilla control light, replicate 1 = 1.99e6; Renilla control light, replicate 2 = 2.50e6; Call = inactive
CG11777 [DRSC06081] | firefly reporter light, replicate 1 = 3.06e5; firefly reporter light, replicate 2 = 2.46e5; Renilla control light, replicate 1 = 1.69e6; Renilla control light, replicate 2 = 1.83e6; Call = inactive
CG11777 [DRSC26750] | firefly reporter light, replicate 1 = 2.84e5; firefly reporter light, replicate 2 = 2.84e5; Renilla control light, replicate 1 = 6.43e5; Renilla control light, replicate 2 = 3.76e5; Call = inactive
Tmem214 (Transmembrane protein 214) [DRSC02924] | firefly reporter light, replicate 1 = 2.06e5; firefly reporter light, replicate 2 = 2.72e5; Renilla control light, replicate 1 = 1.48e6; Renilla control light, replicate 2 = 1.58e6; Call = inactive
Tmem214 (Transmembrane protein 214) [DRSC02925] | firefly reporter light, replicate 1 = 2.24e5; firefly reporter light, replicate 2 = 1.47e5; Renilla control light, replicate 1 = 1.78e6; Renilla control light, replicate 2 = 1.60e6; Call = inactive
Tmem214 (Transmembrane protein 214) [DRSC28172] | firefly reporter light, replicate 1 = 3.70e5; firefly reporter light, replicate 2 = 4.08e5; Renilla control light, replicate 1 = 1.01e6; Renilla control light, replicate 2 = 9.83e5; Call = inactive
tin (tinman) [DRSC17083] | firefly reporter light, replicate 1 = 2.71e5; firefly reporter light, replicate 2 = 3.09e5; Renilla control light, replicate 1 = 2.81e6; Renilla control light, replicate 2 = 3.56e6; Call = inactive
tin (tinman) [DRSC23248] | firefly reporter light, replicate 1 = 4.03e5; firefly reporter light, replicate 2 = 3.05e5; Renilla control light, replicate 1 = 1.29e6; Renilla control light, replicate 2 = 1.18e6; Call = inactive
tin (tinman) [DRSC28260] | firefly reporter light, replicate 1 = 4.08e5; firefly reporter light, replicate 2 = 7.14e5; Renilla control light, replicate 1 = 1.11e6; Renilla control light, replicate 2 = 1.75e6; Call = inactive

Targets above whose target name begins with L or l (2):
lic (licorne) [DRSC20347] | firefly reporter light, replicate 1 = 1.49e5; firefly reporter light, replicate 2 = 1.26e5; Renilla control light, replicate 1 = 7.90e5; Renilla control light, replicate 2 = 7.04e5; Call = inactive
lic (licorne) [DRSC36705] | firefly reporter light, replicate 1 = 8.43e5; firefly reporter light, replicate 2 = 8.51e5; Renilla control light, replicate 1 = 1.22e6; Renilla control light, replicate 2 = 1.67e6; Call = inactive
